Reference: the supplement of paper PMC12067093, “Discovery and optimisation of a covalent ligand for TRIM25 and its application to targeted protein ubiquitination” (Chemical Science, 2025)
The other results are listed elsewhere or left out.

Chains of the proteins cited; added tags and fusions are not shown. Lines headed by an entry give the natural chain unless they say otherwise; changes in a name come on top.
UniProt Q86UV5: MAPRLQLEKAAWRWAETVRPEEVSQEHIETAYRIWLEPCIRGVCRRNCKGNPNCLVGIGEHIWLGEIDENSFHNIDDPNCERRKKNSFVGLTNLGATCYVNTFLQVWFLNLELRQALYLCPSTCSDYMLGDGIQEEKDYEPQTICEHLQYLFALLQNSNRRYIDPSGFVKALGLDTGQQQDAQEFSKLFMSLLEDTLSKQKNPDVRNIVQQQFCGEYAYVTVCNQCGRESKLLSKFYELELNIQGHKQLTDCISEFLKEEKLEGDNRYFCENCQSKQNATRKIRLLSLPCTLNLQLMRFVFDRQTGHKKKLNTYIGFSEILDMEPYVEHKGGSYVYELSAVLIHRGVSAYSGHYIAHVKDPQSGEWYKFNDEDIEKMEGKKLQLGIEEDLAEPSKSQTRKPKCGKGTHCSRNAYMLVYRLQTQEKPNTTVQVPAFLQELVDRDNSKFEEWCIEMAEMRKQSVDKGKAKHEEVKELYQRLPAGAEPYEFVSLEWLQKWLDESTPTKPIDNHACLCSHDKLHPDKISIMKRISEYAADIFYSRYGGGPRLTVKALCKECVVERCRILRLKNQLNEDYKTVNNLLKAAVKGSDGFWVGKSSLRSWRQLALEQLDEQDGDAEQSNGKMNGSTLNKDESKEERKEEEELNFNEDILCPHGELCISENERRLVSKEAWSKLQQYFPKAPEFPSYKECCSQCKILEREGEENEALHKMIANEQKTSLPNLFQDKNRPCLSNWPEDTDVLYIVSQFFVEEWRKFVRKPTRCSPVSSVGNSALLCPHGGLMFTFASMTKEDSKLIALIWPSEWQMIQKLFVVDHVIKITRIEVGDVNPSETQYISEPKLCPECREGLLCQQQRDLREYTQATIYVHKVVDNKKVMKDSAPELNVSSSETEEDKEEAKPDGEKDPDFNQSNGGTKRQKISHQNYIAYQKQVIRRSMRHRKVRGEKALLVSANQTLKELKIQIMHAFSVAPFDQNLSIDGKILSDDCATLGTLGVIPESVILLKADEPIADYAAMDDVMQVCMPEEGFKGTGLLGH
UniProt Q9C0B0: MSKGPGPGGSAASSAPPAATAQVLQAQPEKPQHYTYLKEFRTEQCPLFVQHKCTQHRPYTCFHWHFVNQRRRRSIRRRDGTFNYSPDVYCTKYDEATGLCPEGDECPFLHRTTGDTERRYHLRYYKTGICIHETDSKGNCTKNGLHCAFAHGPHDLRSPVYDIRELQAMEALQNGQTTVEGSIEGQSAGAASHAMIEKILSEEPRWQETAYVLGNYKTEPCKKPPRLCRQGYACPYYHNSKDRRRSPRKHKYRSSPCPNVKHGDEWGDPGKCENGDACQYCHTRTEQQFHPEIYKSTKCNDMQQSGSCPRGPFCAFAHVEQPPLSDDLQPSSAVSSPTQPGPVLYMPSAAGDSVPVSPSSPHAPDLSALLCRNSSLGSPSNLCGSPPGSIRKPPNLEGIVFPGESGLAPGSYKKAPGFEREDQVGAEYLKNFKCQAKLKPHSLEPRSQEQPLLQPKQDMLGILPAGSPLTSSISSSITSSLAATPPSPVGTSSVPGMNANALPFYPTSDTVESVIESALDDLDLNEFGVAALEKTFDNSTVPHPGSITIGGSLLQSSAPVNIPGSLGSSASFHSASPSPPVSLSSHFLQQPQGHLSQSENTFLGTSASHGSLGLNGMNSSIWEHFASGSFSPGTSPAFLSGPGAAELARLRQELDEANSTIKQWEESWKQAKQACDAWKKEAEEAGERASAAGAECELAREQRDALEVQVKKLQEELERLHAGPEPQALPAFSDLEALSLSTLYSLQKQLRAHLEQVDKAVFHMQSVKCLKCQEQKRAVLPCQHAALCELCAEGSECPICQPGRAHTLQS
UniProt Q9H3U1: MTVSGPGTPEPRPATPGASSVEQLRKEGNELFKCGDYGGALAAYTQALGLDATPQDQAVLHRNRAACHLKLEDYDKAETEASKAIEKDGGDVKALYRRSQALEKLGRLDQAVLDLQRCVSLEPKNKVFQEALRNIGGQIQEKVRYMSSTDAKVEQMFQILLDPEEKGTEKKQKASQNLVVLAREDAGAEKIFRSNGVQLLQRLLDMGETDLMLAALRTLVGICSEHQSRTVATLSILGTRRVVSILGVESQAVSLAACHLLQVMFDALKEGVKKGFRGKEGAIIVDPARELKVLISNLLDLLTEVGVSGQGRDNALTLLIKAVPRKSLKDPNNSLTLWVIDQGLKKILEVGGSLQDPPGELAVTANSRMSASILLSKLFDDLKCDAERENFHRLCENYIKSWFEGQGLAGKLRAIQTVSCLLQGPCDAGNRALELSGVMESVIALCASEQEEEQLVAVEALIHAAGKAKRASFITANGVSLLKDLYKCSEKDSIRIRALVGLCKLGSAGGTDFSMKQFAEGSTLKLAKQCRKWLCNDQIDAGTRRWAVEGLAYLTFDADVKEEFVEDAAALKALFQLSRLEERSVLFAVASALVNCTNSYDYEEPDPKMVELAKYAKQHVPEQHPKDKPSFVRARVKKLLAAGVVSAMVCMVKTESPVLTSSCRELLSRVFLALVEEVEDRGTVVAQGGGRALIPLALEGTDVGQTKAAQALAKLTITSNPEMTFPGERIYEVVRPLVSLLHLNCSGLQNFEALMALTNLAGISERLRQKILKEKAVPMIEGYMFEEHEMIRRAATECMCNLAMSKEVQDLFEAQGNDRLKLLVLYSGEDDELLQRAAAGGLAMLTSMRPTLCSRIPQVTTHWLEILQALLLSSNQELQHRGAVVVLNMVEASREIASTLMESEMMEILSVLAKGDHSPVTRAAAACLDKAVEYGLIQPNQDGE
UniProt O94966: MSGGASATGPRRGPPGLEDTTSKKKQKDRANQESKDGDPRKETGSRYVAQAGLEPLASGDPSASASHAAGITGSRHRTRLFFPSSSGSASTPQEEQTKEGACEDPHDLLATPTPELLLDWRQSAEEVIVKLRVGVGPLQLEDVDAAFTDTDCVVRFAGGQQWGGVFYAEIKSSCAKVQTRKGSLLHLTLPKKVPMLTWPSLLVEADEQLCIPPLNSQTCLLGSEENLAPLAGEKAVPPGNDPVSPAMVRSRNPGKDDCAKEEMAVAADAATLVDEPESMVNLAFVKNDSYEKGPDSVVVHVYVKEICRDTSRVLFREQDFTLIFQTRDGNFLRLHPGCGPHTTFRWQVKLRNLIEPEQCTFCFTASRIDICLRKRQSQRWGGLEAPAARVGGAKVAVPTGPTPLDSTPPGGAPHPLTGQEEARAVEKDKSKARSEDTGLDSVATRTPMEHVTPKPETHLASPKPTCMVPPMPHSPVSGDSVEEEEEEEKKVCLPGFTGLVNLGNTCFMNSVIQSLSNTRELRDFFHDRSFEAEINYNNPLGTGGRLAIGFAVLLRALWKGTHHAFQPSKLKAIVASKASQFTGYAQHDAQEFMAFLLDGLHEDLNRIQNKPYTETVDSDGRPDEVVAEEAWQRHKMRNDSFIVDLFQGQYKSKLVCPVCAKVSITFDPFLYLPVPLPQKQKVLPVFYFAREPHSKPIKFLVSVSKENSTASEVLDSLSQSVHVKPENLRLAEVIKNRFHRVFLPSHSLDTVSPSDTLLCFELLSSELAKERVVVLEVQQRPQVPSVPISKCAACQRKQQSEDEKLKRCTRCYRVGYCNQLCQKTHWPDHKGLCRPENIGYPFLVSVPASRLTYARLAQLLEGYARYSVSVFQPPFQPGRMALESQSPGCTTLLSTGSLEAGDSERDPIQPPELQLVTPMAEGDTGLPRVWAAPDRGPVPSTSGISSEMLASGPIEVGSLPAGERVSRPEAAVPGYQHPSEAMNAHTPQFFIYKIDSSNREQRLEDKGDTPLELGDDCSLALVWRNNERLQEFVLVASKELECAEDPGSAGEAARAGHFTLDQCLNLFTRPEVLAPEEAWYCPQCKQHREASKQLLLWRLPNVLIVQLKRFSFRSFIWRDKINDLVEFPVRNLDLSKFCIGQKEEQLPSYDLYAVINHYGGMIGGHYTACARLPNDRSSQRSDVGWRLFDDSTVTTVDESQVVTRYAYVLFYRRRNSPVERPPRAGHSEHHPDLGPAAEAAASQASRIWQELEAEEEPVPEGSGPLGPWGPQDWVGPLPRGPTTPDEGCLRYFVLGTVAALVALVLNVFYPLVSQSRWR
UniProt A0JNW5: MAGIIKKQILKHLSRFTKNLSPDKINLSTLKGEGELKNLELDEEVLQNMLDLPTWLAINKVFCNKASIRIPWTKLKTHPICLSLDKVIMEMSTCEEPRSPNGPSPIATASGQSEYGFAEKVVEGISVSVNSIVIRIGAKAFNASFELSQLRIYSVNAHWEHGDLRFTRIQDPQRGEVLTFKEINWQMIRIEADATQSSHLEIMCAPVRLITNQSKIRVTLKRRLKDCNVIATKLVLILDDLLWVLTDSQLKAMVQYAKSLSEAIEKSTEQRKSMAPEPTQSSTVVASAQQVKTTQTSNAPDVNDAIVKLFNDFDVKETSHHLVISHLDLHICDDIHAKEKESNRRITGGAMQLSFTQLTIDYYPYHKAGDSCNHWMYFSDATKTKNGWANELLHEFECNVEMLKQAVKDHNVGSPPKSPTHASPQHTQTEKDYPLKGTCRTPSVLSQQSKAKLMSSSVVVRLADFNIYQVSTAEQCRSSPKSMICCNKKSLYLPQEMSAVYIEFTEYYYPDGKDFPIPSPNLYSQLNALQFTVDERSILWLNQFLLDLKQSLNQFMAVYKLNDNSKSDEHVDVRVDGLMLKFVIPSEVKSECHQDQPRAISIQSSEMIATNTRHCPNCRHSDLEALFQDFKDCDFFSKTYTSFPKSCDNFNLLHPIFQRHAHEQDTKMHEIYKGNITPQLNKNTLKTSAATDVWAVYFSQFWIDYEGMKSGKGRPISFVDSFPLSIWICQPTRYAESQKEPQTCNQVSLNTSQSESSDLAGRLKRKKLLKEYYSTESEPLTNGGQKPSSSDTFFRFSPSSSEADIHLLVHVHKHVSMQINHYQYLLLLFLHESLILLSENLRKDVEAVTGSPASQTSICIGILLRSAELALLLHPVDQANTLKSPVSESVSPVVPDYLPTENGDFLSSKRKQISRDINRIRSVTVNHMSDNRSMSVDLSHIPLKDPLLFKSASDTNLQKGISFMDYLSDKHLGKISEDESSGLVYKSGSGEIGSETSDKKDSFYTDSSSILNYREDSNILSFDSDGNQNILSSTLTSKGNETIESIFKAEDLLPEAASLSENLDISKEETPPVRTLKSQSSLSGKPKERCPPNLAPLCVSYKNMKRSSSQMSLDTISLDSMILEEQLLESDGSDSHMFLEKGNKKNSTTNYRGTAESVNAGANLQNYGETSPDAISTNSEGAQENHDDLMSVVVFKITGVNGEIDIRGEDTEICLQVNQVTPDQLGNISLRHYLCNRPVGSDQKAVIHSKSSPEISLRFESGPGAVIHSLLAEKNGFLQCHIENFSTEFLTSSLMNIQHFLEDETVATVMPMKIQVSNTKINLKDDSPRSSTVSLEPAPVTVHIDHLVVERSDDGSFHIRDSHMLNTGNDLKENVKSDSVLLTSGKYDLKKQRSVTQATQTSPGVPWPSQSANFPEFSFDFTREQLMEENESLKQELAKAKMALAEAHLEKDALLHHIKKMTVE
UniProt Q96RL1: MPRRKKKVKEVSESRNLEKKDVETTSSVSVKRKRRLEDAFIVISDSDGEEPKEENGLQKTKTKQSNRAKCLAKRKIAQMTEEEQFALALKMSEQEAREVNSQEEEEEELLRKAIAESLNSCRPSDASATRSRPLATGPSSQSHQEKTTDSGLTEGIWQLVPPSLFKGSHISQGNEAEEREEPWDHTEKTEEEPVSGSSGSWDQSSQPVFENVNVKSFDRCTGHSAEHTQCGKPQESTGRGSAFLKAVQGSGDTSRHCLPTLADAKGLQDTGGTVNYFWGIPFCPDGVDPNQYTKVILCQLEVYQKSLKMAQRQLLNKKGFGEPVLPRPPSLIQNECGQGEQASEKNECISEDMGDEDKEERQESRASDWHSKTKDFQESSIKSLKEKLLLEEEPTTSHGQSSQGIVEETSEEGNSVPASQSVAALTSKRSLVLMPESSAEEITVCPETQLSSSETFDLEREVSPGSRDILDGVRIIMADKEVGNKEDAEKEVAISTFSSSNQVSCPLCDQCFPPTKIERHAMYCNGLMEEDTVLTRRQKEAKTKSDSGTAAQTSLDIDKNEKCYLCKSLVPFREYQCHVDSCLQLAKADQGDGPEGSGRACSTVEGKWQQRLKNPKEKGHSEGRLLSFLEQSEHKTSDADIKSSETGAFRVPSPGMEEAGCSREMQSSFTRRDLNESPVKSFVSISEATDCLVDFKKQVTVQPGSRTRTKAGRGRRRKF

compound: Cc1cc(ccc1-c1ccccc1)C(=O)N1CCCN(CC1)C(=O)CCl [compound 10]; assay: probe-labelled cysteine peptide fold change vs DMSO (competition) (log2 fold change); higher = less target engagement (more negative = stronger competition); details: 10 µM; THP-1; incubation time: 4 h
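Note: competitive profiling in live THP-1 cells: cysteine peptides tagged with an iodoacetamide desthiobiotin (IA-DTB) probe, intensity after compound treatment relative to DMSO-treated cells.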

Row | Target | probe-labelled cysteine peptide fold change
1 | USP48_Q86UV5_290_LLSLPCTLNLQLMR (UniProt Q86UV5) | -0.148
2 | UBXN7_O94888_38_HMLEACNNNLEMAVTMFLDGGGIAEEPSTSSASVSTVRPHTEEEVR (UniProt O94888) | 0.519
3 | UPF1_Q92900_852_DFIILSCVR (UniProt Q92900) | 0.0911
4 | UHRF1BP1_Q6BDS2_384_HCEAMETR (UniProt Q6BDS2) | -0.146
5 | USP42_Q9H9J4_867_SEEPCEQPLLVHPSGDHAR (UniProt Q9H9J4) | 0.0308
6 | USP48_Q86UV5_145_DYEPQTICEHLQYLFALLQNSNRR (UniProt Q86UV5) | 0.119
7 | UNK_Q9C0B0_147_NGLHCAFAHGPHDLR (UniProt Q9C0B0) | 0.168
8 | UNC45A_Q9H3U1_395_LCENYIK (UniProt Q9H3U1) | 0.113
9 | USP19_O94966_656+659_LVCPVCAK (UniProt O94966) | -0.159
10 | UHRF1BP1L_A0JNW5_398_NGWANELLHEFECNVEMLK (UniProt A0JNW5) | -0.0203
11 | UFL1_O94874_708_CVPQIIAFLNSK (UniProt O94874) | -0.0536
12 | USP8_P40818_214_RMQDYQDSCILHSLSVPEEAISPGVTASWIEAHLPDDSK (UniProt P40818) | -0.055
13 | USP7_Q93009_961_IIGVHQEDELLECLSPATSR (UniProt Q93009) | -0.243
14 | UNK_Q9C0B0_299+308_CNDMQQSGSCPR (UniProt Q9C0B0) | 0.193
15 | USP15_Q9Y4E8_570_DDIYVFEININRTEDTEHVIIPVCLR (UniProt Q9Y4E8) | 0.182
16 | USP19_O94966_833_GLCRPENIGYPFLVSVPASR (UniProt O94966) | 0.0512
17 | UGP2_Q16851_123_LNGGLGTSMGCK (UniProt Q16851) | -0.279
18 | UHRF1_Q96T88_497_RTAEQSCDQK (UniProt Q96T88) | -0.106
19 | URB1_O60287_473_TVDHCLNK (UniProt O60287) | -0.0146
20 | UIMC1_Q96RL1_348_NECISEDMGDEDKEER (UniProt Q96RL1) | -0.425
21 | USP34_Q70CQ2_111_HCTTINIDSTWQDESNQAEEPLNIDRECNEGSTER (UniProt Q70CQ2) | -0.406

From no. 8 up to 9, copied from above:
Row | Target | probe-labelled cysteine peptide fold change
8 | UNC45A_Q9H3U1_395_LCENYIK (UniProt Q9H3U1) | 0.113
9 | USP19_O94966_656+659_LVCPVCAK (UniProt O94966) | -0.159
